Assay results published in paper PMC4907476.
No constants are given. Whether binding was seen depends on the method and setting. In cells and extracts the contact can be indirect. Some entries that bind do so weakly or less than the wild type.

By UniProt entry, the sequences of proteins in these tests, tags left out. Where a name states a change or a piece, a line headed by the entry shows the natural chain unless it says otherwise.
UniProt P47900: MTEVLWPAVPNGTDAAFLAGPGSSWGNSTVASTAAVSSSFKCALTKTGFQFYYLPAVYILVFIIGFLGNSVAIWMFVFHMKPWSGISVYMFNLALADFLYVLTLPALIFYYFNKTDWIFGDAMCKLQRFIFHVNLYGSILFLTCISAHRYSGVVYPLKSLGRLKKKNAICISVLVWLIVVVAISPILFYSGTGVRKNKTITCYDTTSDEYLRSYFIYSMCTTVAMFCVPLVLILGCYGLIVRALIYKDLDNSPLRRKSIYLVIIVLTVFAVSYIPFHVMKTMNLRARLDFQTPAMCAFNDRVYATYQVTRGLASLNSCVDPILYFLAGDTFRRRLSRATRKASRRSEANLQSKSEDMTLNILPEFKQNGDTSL
UniProt Q8WUM4: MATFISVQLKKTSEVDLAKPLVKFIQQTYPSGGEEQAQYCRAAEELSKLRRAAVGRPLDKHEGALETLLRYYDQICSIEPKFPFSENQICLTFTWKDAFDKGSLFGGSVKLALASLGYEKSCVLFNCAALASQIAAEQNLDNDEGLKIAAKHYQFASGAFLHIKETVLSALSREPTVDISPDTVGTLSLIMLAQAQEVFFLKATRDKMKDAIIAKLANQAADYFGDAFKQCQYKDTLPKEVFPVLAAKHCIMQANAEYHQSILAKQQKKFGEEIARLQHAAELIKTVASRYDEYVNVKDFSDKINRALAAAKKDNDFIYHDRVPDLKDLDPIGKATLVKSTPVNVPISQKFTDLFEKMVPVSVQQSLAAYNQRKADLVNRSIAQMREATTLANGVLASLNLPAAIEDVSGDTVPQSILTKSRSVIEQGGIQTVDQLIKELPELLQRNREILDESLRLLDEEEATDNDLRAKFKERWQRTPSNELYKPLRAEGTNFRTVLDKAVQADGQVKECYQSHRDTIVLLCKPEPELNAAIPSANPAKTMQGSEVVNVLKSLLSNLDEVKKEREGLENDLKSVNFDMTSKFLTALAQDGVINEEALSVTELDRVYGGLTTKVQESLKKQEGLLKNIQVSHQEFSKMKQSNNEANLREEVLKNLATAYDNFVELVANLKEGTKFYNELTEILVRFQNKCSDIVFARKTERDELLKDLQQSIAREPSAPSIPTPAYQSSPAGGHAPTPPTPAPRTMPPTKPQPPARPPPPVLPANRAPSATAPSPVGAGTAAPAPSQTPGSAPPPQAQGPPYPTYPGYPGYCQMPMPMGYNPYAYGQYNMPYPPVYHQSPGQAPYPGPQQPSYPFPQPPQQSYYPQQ

Assays:
[1] = target: FLAG-P2Y1 Y155A mutant (human) (UniProt P47900); assay: co-IP; HeLa cells transfected with FLAG-P2Y1 WT or Y155A, unstimulated or stimulated with 10 uM ADP for the indicated times (up to 120 min); lysis in NP-40 buffer (0.5% NP40, 20 mM Tris-HCl pH 7.4, 150 mM NaCl); anti-FLAG antibody and protein-A sepharose overnight at 4 C; immunoblot for endogenous ALIX
[2] = target: FLAG-P2Y1 wild type (full-length N-terminal FLAG-tagged P2Y1 purinergic receptor) (human) (UniProt P47900); assay: as above

ALIX (adaptor protein), endogenous (from UniProt Q8WUM4 1-868)
binding [1]: binds weakly
binding [2]: binds
